In publication doi:10.1101/2021.12.08.471790 one finds binding data, which are given here for 2 substances.

Protein sequences, listed by entry. Tags and fused reporters are not part of them. Residues count along the entry.
UniProt Q03431, residues 27-593: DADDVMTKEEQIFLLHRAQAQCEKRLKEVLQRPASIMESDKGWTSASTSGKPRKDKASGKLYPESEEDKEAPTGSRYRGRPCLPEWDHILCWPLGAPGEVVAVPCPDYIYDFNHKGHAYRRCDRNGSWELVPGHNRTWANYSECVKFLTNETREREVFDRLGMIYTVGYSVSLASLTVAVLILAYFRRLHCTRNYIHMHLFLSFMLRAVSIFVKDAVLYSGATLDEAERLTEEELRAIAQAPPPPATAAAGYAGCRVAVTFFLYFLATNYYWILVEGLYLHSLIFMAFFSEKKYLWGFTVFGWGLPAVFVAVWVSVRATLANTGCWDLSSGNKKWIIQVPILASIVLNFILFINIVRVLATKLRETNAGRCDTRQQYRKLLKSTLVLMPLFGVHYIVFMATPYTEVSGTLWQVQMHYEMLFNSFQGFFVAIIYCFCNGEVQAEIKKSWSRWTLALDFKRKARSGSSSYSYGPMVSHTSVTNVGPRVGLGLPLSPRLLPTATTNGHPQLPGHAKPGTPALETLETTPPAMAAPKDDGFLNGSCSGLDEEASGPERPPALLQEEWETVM
UniProt O60895, residues 43-175: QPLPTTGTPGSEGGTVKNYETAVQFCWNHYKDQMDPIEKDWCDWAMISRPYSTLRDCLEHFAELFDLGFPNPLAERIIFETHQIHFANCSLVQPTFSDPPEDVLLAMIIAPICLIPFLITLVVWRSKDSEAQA
UniProt P32121: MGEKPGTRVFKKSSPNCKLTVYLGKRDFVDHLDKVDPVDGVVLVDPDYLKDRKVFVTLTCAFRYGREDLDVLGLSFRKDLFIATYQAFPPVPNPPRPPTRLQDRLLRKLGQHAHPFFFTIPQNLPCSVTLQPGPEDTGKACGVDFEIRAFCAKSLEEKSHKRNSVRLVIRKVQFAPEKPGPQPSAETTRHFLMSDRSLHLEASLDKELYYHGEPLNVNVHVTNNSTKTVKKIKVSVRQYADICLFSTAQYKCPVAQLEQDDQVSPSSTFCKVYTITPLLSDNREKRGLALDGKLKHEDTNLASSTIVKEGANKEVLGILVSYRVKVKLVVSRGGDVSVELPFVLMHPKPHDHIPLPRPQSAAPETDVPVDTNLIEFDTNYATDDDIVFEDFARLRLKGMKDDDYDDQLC

Assay [1] deals with PTH1R labelled with a C-terminal mCitrine (HA-PTH1R_(mCitrine)) (human) (UniProt Q03431). Put plainly: FRET or BRET.
Assay [2] addresses HA-PTH1R_(NanoLuc) (human) (UniProt Q03431). Put plainly: FRET or BRET.

No constants are given. Whether binding was seen depends on the method and setting. Binding seen in cells or lysates may run through a third protein. Some entries that bind do so weakly or less than the wild type.

For “RAMP2 labelled at its intracellular C-terminus with mTurquoise2 (from UniProt O60895 43-175)”, in assay [1], the binding result is reported as “binds”. As for “β-arrestin2_(mVenus) (from UniProt P32121 1-409)”, in assay [2], the binding result is on record as “binds”.
